Results as given in patent US7329782B2, “Compounds for the treatment of metabolic disorders” (Wellstat Therapeutics Corporation, priority 2001, dated 2008).
At least one compound was matched to its structure with a doubt left.

Experiments:
[1] = tested on: db/db mice; assay: Antidiabetic effects in db/db mice, second experiment, 8 weeks (Example H); format: in vivo; details: 20 mg/kg, 8 weeks of treatment
[2] = tested on: db/db mice; assay: Antidiabetic effects in db/db mice, first experiment, four weeks (Example H); format: in vivo; details: daily oral 100 mg/kg
[3] = tested on: ob/ob mice; details: four week treatment period, over the dose range
[4] = tested on: mice with severe insulin-dependent diabetes induced by streptozotocin; assay: Survival of mice with lethal insulin-dependent diabetes, single dose of streptozotocin (Example B); format: in vivo, Balb/C mice; details: STZ 175 mg/kg i.p. mice, daily oral gavage 30 mg/kg/day
Description: Female Balb/C mice (14 weeks old) were treated with a single dose of streptozotocin (175 mg/kg i.p.) to induce severe insulin-dependent diabetes. Seven days later, mice were divided into three treatment groups: Compound AH, pioglitazone, and vehicle. Mice were treated daily via oral gavage, and survival was monitored over time.

SMILES	Glucose [1]	Triglycerides [1]	blood glucose over the first 3 weeks [2]	Glucose ([2]; four weeks, 100 mg/kg)	weight gain relative to vehicle-treated mice [3]	Survivors (Survival at 12 weeks) [4]
CN(CCOc1ccc(CC2SC(=O)NC2=O)cc1)c1ccccn1 (stereo not drawn) [Rosiglitazone, rosiglitazone]	significantly lower	significantly lower	–	–	–	–
CCc1ccc(CCOc2ccc(CC3SC(=O)NC3=O)cc2)nc1 (stereo not drawn) [Pioglitazone, pioglitazone, reference compound]	–	–	did initially reduce blood glucose	activity had largely failed	exacerbated weight gain	Two of five
